According to US10280170B2, “Substituted 4,5,6,7-tetrahydro-pyrazolo[1,5-a]pyrazine derivatives and 5,6,7,8-tetrahydro-4H-pyrazolo[1,5-a][1,4]diazepine derivatives as Ros1 inhibitors” (Janssen Pharmaceutica NV, priority 2014, dated 2019):
At least one read-out could not be matched to a standard name with certainty.

tested on: Ba/F3 cells containing Ros1 wild-type protein + IL-3; experiment: Ba/F3-Ros1 cell proliferation counter-screen, wild-type protein in the presence of 10 ng/ml murine IL-3; format: cell-based
Procedure: This assay was carried out with Ba/F3 cells containing three different versions of Ros1: the wild-type protein, protein with a mutation at the gatekeeper residue (L2026M), and protein with a mutation identified in a tumor from a patient that became resistant to crizotinib (Xalkori®) treatment (G2032R). Compounds were solubilized in 100% DMSO (dimethyl sulfoxide) and sprayed into polystyrene, tissue culture treated 384-well plates. A 50 μl volume of cell culture medium (phenol red free RPMI-1640, 10% FBS (fetal bovine serum), 2 mM L-Glutamine) containing 20000 Ba/F3-Ros1 cells was added to each well and the plates were placed in an incubator at 37° C. and 5% CO2. After 24 hours, 10 μl of Alamar Blue solution (0.5 mM K3Fe(CN)6, 0.5 mM K4Fe(CN)6, 0.15 mM Resazurin and 100 mM Phosphate Buffer) was added to the wells, incubated for 4 hours at 37° C. and 5% CO2 before RFU's (Relative Fluorescence Units) (ex. 540 nm., em. 590 nm.) were measured in a fluorescence plate reader.
As a counter-screen the same experiment was performed for the wild-type protein in the presence of 10 ng/ml murine IL-3.

Row | SMILES | BaF3-ROS1 + IL3 pIC50
1 | CC(C)c1ccc(COc2ccc(-c3c(-c4ccncc4)nn4c3C(=O)N(CC(O)CO)CC4)c(F)c2)cc1 (stereo not shown) [Compound 22] | <5
2 | CC(C)c1ccc(COc2ccc(-c3c(-c4ccncc4)nn4c3C(=O)N(CC(O)CO)CC4)cc2)c(F)c1F (stereo not shown) [Compound 102] | <5
3 | CC(O)CN1CCn2nc(-c3ccncc3)c(-c3ccc(OCc4ccc(C5CC5)cc4)cc3)c2C1=O (stereo not shown) [Compound 135] | <5
4 | CC(O)CN1CCn2nc(-c3ccncc3)c(-c3ccc(OCc4ccc(C(C)C)cc4)cc3)c2C1=O (stereo not shown) [Compound 46] | <5
5 | CC(C)c1ccc(COc2ccc(-c3c(-c4ccncc4)nn4c3C(=O)N(CC(O)CO)CC4)cc2)cc1 (stereo not shown) [Compound 41] | <5
6 | CC(C)c1ccc(COc2ccc(-c3c(-c4ccncc4)nn4c3C(=O)N(CCN)CC4)cc2)cc1 [Compound 59a] | 5.2
7 | CC(C)c1ccc(C2CNc3cc(-c4c(-c5ccncc5)nn5c4C(=O)NCC5)ccc3O2)cc1 (stereo not shown) [Compound 225] | <5
8 | CC(C)c1ccc(COc2ccc(-c3c(-c4ccncc4)nn4c3C(=O)N(C(C)CO)CC4)cc2)cc1 (single isomer, unassigned) [Compound 38] | <5
9 | CC(C)c1ccc(COc2ccc(-c3c(-c4ccncc4)nn4c3C(=O)N(CC(O)CO)CC4)cc2)cc1 (stereo not shown) [Compound 44] | <5
10 | CC(C)c1cc(F)c(COc2ccc(-c3c(-c4ccncc4)nn4c3C(=O)N(CC(O)CO)CC4)cc2)c(F)c1 (stereo not shown) [Compound 96] | <5
11 | CC(C)c1cc(F)c(COc2ccc(-c3c(-c4ccncc4)nn4c3C(=O)N(CC(O)CO)CC4)cc2)cc1F (stereo not shown) [Compound 99] | <5
12 | CC(C)c1ccc(C(C)Oc2ccc(-c3c(-c4ccncc4)nn4c3C(=O)N(CCO)CC4)cc2)cc1 (stereo not shown) [Compound 145] | <5
13 | CC(O)CN1CCn2nc(-c3ccncc3)c(-c3ccc(OCc4ccc(C(C)C)cc4)cc3)c2C1 (stereo not shown) [Compound 192] | <5
